From patent US20240043551A1 (ADLAI NORTYE BIOPHARMA, published 2024)
Residue numbers refer to the chain shown, from its start. Results are given in words; binding and its absence hold for the method and conditions named. Some binding calls cover weakened binding; strength is not graded here. Values belong to the binder of their own block, whether it stands above or below them.

Protein sequences, listed by entry. Tags and fused reporters are not part of them. Lines headed by an entry give the natural chain unless they say otherwise; changes in a name come on top. Chains listed by the source or under a name are the forms on record and can include a tag or linker. Residues count along the entry.
UniProt P20333: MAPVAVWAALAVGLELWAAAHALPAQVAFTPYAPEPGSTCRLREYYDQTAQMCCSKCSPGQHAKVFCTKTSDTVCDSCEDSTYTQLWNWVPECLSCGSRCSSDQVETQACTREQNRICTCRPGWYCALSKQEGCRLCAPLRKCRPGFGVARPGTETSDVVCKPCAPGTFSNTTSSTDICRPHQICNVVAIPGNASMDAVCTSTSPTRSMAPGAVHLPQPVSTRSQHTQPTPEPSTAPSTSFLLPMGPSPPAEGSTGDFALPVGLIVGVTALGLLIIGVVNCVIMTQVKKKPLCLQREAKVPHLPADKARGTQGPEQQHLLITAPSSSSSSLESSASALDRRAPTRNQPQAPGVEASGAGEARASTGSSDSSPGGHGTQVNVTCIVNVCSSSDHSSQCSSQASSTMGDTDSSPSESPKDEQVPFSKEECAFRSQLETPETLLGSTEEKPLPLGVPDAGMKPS
Full length human TNFR2 on Jurkat E6-1 cells (Clone NO.3): residues 23-461 of P20333
His tagged human TNFR2 ECD (Acro Biosystem, TN2-H5227): residues 23-257 of P20333

How the values were obtained:
[1] = target: His tagged human TNFR2 ECD (Acro Biosystem, TN2-H5227) (human) (UniProt P20333); assay: ELISA, TNFR2-His coated, antibody 0.006 and 0.06 µg/well
[2] = target: Cynomolgus TNFR2 (Sino Biological, 90102-CO8H) (cynomolgus); assay: ELISA, receptor coated at 1 µg/mL, antibody titrated from 5 µg/mL
[3] = target: His tagged human TNFR2 ECD (Acro Biosystem, TN2-H5227) (human) (UniProt P20333); assay: as above
[4] = target: Full length human TNFR2 on Jurkat E6-1 cells (Clone NO.3) (human) (UniProt P20333); assay: FACS on human TNFR2+ Jurkat Clone No.3, biotinylated antibody with streptavidin-PE

binding [1]: binds
binding [2]: binds
binding [3]: binds
binding [4]: binds
B1: TN36-20 (antibody, human IgG1, V domains shown)
VH: EVQLVESGGGLVQPGGSLRLSCAASGFSLSSSAVSWVRQAPGKGLEWIGAIGSGGTSYYSNWAKSRFTISRDNSKNTLYLQMNSLRAEDTAVYYCARDPNSSDYPYGAYGMGLWGPGTLVTVSS
VL: DIQMTQSPSFLSASVGDRVTITCQVSQSISSYLSWYQQKPGKAPKLLIYYASTLASGVPSRFSGSGSGTDFTLTISSLQPEDFATYYCQQGYITSNVGNAFGGGTKVEIK
notes: Humanized; also called AL6/AL10

binding [1]: binds
binding [2]: binds
binding [3]: binds
binding [4]: binds
B2: TN36-21 (antibody, human IgG1, V domains shown)
VH: B1 VH
VL: B1 VL with M4L, D70E
notes: Humanized; also called AL6/AL11
